Values joined by “and” are separate entries in the source; they are usually repeats but may differ in a detail not shown here. Equal entries are not always repeated. Inconclusive means that the source gave no clear call. Such entries were picked first, then a sample of the others. Potencies of inconclusive entries are doubtful fits and often do not repeat. Where a structure was tested more than once in an assay, its records may differ in their call. Active and inactive are the calls of the source. Rule for the calls: active = hit-call score of the fitted dose curve at least 0.9, where 1 is the maximum; inconclusive = response in the unintended direction; inactive = score below 0.9.
target: Cellular tumor antigen p53 (Homo sapiens) (UniProt P04637); test: TOX21_p53_BLA_p4_ratio: Tox21 HCT-116 p53 Agonism Beta-lactamase Assay, Ratio, Phase 4 (AID 2283601)
Description: TOX21_p53_BLA_p4 is a cell-based, single-readout assay that uses HCT116, a human intestinal cell line, […] in a 1536-well plate.TOX21_p53_BLA_p4_ratio is an assay readout measuring reporter gene via receptor activity and designed using inducible reporter (beta lactamase induction) detected with GAL4 b-lactamase reporter gene. The signal is derived from the ratio of cleaved (ch2) to uncleaved (ch1)reporter gene substrate used as the measure of target activity.Data from the assay component TOX21_p53_BLA_p4_ratio was analyzed into 1 assay endpoint. This assay endpoint, TOX21_p53_BLA_p4_ratio, was analyzed in the positive analysis fitting direction relative to DMSO as the negative control and baseline of activity. Using a type of inducible reporter, gain-of-signal activity can be used to understand changes in the reporter gene as they relate to the gene TP53. Furthermore, this assay endpoint can be referred to as a primary readout, because this assay has produced multiple assay endpoints where this ratio serves a reporter gene function to understand target activity. To generalize the intended target to other relatable targets, this assay endpoint is annotated to the DNA binding intended target family, where the subfamily is tumor suppressor.
Thawing Method: Place 14 mL of pre-warmed thaw medium into a 15 mL of conical tub. Remove the vial of cells to be thawed from liquid nitrogen and thaw rapidly by placing at 37C in a water bath with gentle agitation for 1-2 minutes. Decontaminate the vial by wiping with 70% ethanol before opening in a biological safety cabinet. Transfer the vial contents drop-wise into 14 mL of thaw medium in a sterile 15-mL conical tub. Centrifuge cells at 900 rpm for 4 minutes and resuspend in thaw medium. Transfer contents to the T75 tissue culture flask containing Thaw Medium and place flask in a humidified 37C/5% CO2 incubator. Switch to growth medium at first passage.Propagation Method: Aspirate medium, rinse once in DPBS, add 0.25% Trypsin/EDTA and swirl to coat the cell evenly. Add an equal volume of Growth Medium to inactivate Trypsin after 2-3 minutes incubation at 37C. Centrifuge cells at 900 rpm for 4 minutes and resuspend in growth medium. Cell should be passage or fed at least twice a week.Assay Protocol: Harvest cells from culture in growth medium and resuspend in assay medium. 2.2 Dispense 4000 cells/5 uL/well into 1536-well black/clear bottom plates using a Multidrop dispenser. After the cells were incubated at 37C for 5 hours, 23 nL of compounds dissolved in DMSO were transferred to the assay plate by a PinTool resulting in a 217-fold dilution. Incubate the plates for 16 hours at 37C, 5% CO2. Add 1 uL of 6X LiveBLAzer FRET B/G (CCF4-AM) Substrate Mixture to each well using a BioRAPTR dispenser and incubate the plates at room temperature for 2 hours. Measure fluorescence intensity at 460 and 530 nm emission and 405 nm excitation by an Envision detector. Data is expressed as the ratio of 460nm/530nm emissions. Add 4 uL of Cell-titer Glo to each well using BioRAPTR and incubate the plates at room temperature for 2 hours. Measure fluorescence intensity by a VewLux plate reader.

Protein sequences, listed by entry. Tags and fused reporters are not part of them.
UniProt P04637, whole entry, looked up: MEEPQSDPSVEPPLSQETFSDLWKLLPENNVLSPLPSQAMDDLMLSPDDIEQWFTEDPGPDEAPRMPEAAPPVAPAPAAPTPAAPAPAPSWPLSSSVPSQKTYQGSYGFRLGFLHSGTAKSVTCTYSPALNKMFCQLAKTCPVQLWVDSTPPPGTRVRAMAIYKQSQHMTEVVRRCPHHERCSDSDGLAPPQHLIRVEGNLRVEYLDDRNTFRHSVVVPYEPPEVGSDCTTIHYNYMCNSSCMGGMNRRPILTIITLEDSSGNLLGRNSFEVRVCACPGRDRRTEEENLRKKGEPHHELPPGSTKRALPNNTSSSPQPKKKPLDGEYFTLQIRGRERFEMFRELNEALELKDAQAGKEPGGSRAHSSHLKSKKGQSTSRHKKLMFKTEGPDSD

| Compound | AC50 | outcome |
| --- | --- | --- |
| CC1(C)C(C=C(Cl)Cl)C1C(=O)OC(C#N)c1cccc(Oc2ccccc2)c1 (stereo not given) | inconclusive: 13.2 µM |  |
| C=CC(=O)OCC(CC)(COC(=O)C=C)COC(=O)C=C | active: 69.1 µM | inactive |
| Cc1cc(-c2ccc(N)c(C)c2)ccc1N | active: 70.7 µM and inconclusive: 46 µM | inactive |
| CCC(C)(C)c1ccc(O)c(C(C)(C)CC)c1 | active: 54.3 µM |  |
| CCOc1ccc(N)cc1 | inconclusive: 46.1 µM |  |
| O=C(O)CCCc1ccc(N(CCCl)CCCl)cc1 | active: 71 µM |  |
| C=CC(=O)[O][Sn]([CH2]CCC)([CH2]CCC)[CH2]CCC | active: 13.4 µM |  |
| Cc1cc(C(F)(C(F)(F)F)C(F)(F)F)ccc1NC(=O)c1cccc(I)c1C(=O)NC(C)(C)CS(C)(=O)=O | active: 56.9 µM |  |
| c1cc(OCC2CO2)ccc1Cc1ccc(OCC2CO2)cc1 (stereo not given) | active: 65.9 µM and active: 82.3 µM |  |
| C=CC(=O)OCC(CC)CCCC (stereo not given) | inconclusive: 46 µM |  |
| C[C@]12CCC(=O)C[C@@H]1CC[C@@H]1[C@@H]2CC[C@]2(C)[C@@H](O)CC[C@@H]12 | inconclusive: 71.7 µM |  |
| NC(=O)O |  | inactive |
| CC(C)N1C(=O)c2ccccc2NS1(=O)=O | inconclusive: 46.1 µM |  |
| CO[C@@H]1[C@H](OC(=O)NC(=O)CCl)CC[C@]2(CO2)[C@H]1[C@@]1(C)O[C@@H]1CC=C(C)C | inconclusive: 14.2 µM |  |
| O=CNC(N1CCN(C(NC=O)C(Cl)(Cl)Cl)CC1)C(Cl)(Cl)Cl (stereo not given) | inconclusive: 46.1 µM |  |
| CC(O)(CS(=O)(=O)c1ccc(F)cc1)C(=O)Nc1ccc(C#N)c(C(F)(F)F)c1 (stereo not given) | inconclusive: 23 µM | inactive |
| CCN(CC)C(=O)C(Cl)=C(C)OP(=O)(OC)OC | inconclusive: 23 µM |  |
| CCN(CC)C(=O)C(C)Oc1cccc2ccccc12 (stereo not given) |  | inactive |

Looked up above:
AC50, CCC(C)(C)c1ccc(O)c(C(C)(C)CC)c1 reads active: 54.3 µM
AC50, CCOc1ccc(N)cc1 reads inconclusive: 46.1 µM

Continuation.

| Compound | AC50 | outcome |
| --- | --- | --- |
| CNC(=O)O/N=C/C(C)(C)S(C)(=O)=O | inconclusive: 46 µM and inconclusive: 46.2 µM |  |
| COC(=O)C1(O)c2ccccc2-c2ccccc21 | inconclusive: 46.1 µM |  |
| CC(C)(c1ccccc1)c1ccc(O)cc1 | active: 81.7 µM and active: 70.4 µM |  |
| COc1cc(C=O)cc2c1[C@H](COC(N)=O)[C@]1(OC(C)=O)ON2C[C@H]2[C@@H]1N2C(C)=O | active: 0.304 µM |  |
| CCCCCCCCn1sccc1=O | active: 23.7 µM and active: 46.2 µM |  |
| CO/N=C(/C(=O)OC)c1ccccc1COc1ccccc1C |  | inactive |
| Oc1ccc(C(c2ccc(O)cc2)(C(F)(F)F)C(F)(F)F)cc1 | active: 57.3 µM and active: 69.7 µM |  |
| Cc1ccc(-c2c(Cl)nc(C#N)n2S(=O)(=O)N(C)C)cc1 | active: 17.3 µM |  |
| CCCCCCCCCCCCCCCC[n+]1ccccc1 | active: 67.7 µM [middle of 4 runs] |  |
| Nc1c(Cl)c(Cl)nc(C(=O)O)c1Cl | inconclusive: 50.3 µM |  |
| CC(=O)[O][Hg][c]1ccccc1 | active: 7.28 µM and active: 2.97 µM and active: 7.86 µM |  |
| Cn1c(-c2ccccc2)cc(-c2ccccc2)[n+]1C | inconclusive: 46 µM | inactive |
| Cc1cc(Cl)ccc1OC(C)C(=O)O (stereo not given) | inconclusive: 76.5 µM |  |
| Nc1cc(Cl)cc(C(=O)O)c1Cl | inconclusive: 46.1 µM |  |
| O=C1C2CC=CCC2C(=O)N1SC(Cl)(Cl)Cl (stereo not given) | active: 10.3 µM and inconclusive: 45.9 µM |  |
| O=[N+]([O-])c1cccc2ccccc12 | inconclusive: 46.1 µM |  |
| CC(C)OC(=S)S | inconclusive: 46.1 µM |  |
| CCCCCCCCOC(=O)c1ccccc1C(=O)OCCCCCCCC | inconclusive: 35.4 µM and inconclusive: 23 µM |  |
